Laboratory results from article PMC4300402.
No constants are given. Whether binding was seen depends on the method and setting. Binding can be weak; no strength is given.

Protein sequences, listed by entry. Tags and fused reporters are not part of them.
UniProt P60953: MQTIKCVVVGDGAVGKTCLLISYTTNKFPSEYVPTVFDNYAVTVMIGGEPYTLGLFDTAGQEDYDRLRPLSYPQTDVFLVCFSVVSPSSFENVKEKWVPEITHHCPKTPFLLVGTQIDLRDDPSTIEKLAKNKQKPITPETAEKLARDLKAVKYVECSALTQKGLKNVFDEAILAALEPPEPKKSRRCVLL

What was measured:
[1] = target: GST–PICK1 ΔCT (UniProt Q9EP80); assay: pull-down; GST–PICK1 wild type or truncation mutants incubated with purified his6-tagged flagCdc42 or mycRac1; western blotting with anti-flag or anti-myc; both purified
[2] = target: GST–PICK1 ΔNT (UniProt Q9EP80); assay: as above

his6-tagged flagCdc42 (from UniProt P60953 1-191)
binding [1]: binds | binding [2]: binds
